Laboratory results: publication PMC9849454, “Kaposi’s sarcoma-associated herpesvirus induces specialised ribosomes to efficiently translate viral lytic mRNAs” (Nature Communications, 2023)
Results are given in words; binding and its absence hold for the method and conditions named. Binding seen in cells or lysates may run through a third protein.

Amino acid sequences for entries named in this document (tags omitted).
UniProt P52294: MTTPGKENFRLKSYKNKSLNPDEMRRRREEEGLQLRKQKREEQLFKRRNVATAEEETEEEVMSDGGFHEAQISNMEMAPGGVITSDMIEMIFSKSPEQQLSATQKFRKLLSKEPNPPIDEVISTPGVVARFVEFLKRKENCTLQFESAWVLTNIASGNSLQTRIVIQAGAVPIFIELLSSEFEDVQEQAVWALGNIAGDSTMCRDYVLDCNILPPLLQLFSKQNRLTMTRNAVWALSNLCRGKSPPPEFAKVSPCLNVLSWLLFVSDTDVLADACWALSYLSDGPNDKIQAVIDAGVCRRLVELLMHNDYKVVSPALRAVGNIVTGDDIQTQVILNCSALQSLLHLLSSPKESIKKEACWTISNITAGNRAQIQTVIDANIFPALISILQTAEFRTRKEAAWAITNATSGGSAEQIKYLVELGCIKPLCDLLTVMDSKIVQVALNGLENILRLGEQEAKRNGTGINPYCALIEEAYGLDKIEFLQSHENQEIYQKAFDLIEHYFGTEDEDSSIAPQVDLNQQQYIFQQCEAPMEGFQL
UniProt Q2HRC8: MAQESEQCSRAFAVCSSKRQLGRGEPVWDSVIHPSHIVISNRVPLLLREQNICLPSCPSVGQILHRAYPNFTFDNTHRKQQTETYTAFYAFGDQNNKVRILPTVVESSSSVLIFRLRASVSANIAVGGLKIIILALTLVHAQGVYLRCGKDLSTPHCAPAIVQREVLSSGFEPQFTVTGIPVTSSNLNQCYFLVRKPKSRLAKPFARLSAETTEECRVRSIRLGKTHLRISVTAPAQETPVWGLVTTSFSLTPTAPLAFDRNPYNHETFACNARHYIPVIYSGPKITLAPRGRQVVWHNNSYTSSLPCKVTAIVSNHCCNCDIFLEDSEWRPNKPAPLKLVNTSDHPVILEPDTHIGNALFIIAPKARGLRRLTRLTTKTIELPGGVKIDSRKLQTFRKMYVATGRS

Biological target: GFP-importin α5 (UniProt P52294)
Experiment: co-IP

How did the binding turn out when ORF11-V5 (from UniProt Q2HRC8 1-407) was run?
Its binding is “no binding”.
